Experimental data: patent US20260079169A1, “VOLATILE ORGANIC COMPOUNDS AS MARKERS FOR CELLULAR COMMUNICATION” (Technion Research and Development Foundation Limited, priority 2020, published 2026)

Assays:
[1] = system: A549, H1299, H1975 human lung cancer lines and BEAS-2B normal cell line, each cultured alone; assay: VOCs headspace analysis (ITEX GC-MS) of mono-culture groups (Format-1), bulk cell samples 1×10^4 cells; type: cell-based; conditions: bulk 1 × 10^4 cell
[2] = system: different-cell pairs of BEAS-2B, A549, H1299, H1975 without physical contact under a mutual headspace; assay: VOCs headspace analysis (ITEX GC-MS) of different-cell pair co-culture headspace groups (Format-3), bulk cell samples; type: cell-based, human; conditions: bulk 1 × 10^4 cell

| Structure (SMILES) | VOC level in headspace, area under curve (AUC) normalized by STD AUC ([1]; A (BEAS-2B) mono-culture) | VOC level in headspace, area under curve (AUC) normalized by STD AUC ([1]; B (A549) mono-culture) | VOC level in headspace, area under curve (AUC) normalized by STD AUC ([1]; C (H1299) mono-culture) | VOC level in headspace, area under curve (AUC) normalized by STD AUC ([1]; D (H1975) mono-culture) | VOC level in headspace, area under curve (AUC) normalized by STD AUC ([2]; A + B (BEAS-2B + A549)) | VOC level in headspace, area under curve (AUC) normalized by STD AUC ([2]; A + C (BEAS-2B + H1299)) | VOC level in headspace, area under curve (AUC) normalized by STD AUC ([2]; A + D (BEAS-2B + H1975)) | VOC level in headspace, area under curve (AUC) normalized by STD AUC ([2]; B + C (A549 + H1299)) | VOC level in headspace, area under curve (AUC) normalized by STD AUC ([2]; B + D (A549 + H1975)) | VOC level in headspace, area under curve (AUC) normalized by STD AUC ([2]; C + D (H1299 + H1975)) |
| --- | --- | --- | --- | --- | --- | --- | --- | --- | --- | --- |
| CCCC=C(C)CC [VOC37] | 2.108 | 0 | 0 | 0 | 2.322 | 0 | 0 | 0 | 0 | 0 |
| CC/C=C\CCOC(=O)CC [VOC38] | 0 | 1.564 | 6.18 | 5.232 | 0 | 6.896 | 6.933 | 0 | 4.688 | 7.491 |
| O=COCC(=O)c1ccccc1 [VOC39] | 2.851 | 0 | 0 | 0 |  | 2.841 | 3.772 | 0 | 0 | 0 |
| CC(C)(C)c1cccc(C(C)(C)C)c1 [VOC40] | 5.95 | 8.888 | 0 | 3.324 | 9.491 | 0 | 6.242 | 3.663 | 9.582 | 0 |
| CCCC(C)CC(C)CC (stereo not drawn) [VOC41] | 0 | 2.989 | 0 | 2.414 | 2.429 | 0 | 4.767 | 0 | 0 | 3.749 |
| CCOC(=O)C1Oc2ccccc2O1 [VOC42] | 2.984 | 1.403 | 1.699 | 0 | 5.385 | 4.17 | 0 | 5.338 | 0 | 0 |
| CCCCC(C)CCC(C)CCC (stereo not drawn) [VOC43] | 1.462 | 1.292 | 0 |  | 9.701 | 0 | 0 | 0 | 3.906 | 0 |
| CCCOC(OCCC)OCCC [VOC44] | 0 | 4.068 | 0 | 0 | 3.9578 | 0 | 0 | 2.1894 | 3.767 | 0 |
